Data reported in PubChem BioAssay AID493014 (National Center for Advancing Translational Sciences (NCATS), 2011).
This is one part of the list. These are further read-outs of the screen, such as a control signal, another cell line or another target. No call is given for them. The list favours compounds with an active or inconclusive main result. The note in brackets gives the kind of curve behind each potency; many fits are weak.

Assay: qHTS Assay to Find Inhibitors of Chronic Active B-Cell Receptor Signaling
Details: ABC-DLBCL IkBa-CBG/CBR reporter, luminescence ratio (green luciferase fused to IkBa over red control in TMD8 lymphoma cells), 4 h
Description: NIH Molecular Libraries Probe Production Network [MLPCN] NIH Chemical Genomics Center [NCGC] MLPCN Grant: 1 R03 DA031086-01A1 PI Name: Dr. R. Eric Davis NCGC Assay Overview: Diffuse large B-cell lymphoma (DLBCL) is the most common category of non-Hodgkin lymphoma, with ~20,000 new cases per year in the United States. DLBCL should be regarded as a collection of different neoplasms. Microarray gene expression analysis has defined two principal types of DLBCL, named for their similarity to normal B cell stages or activation states: a germinal center B-cell (GCB) type, and an activated B-cell (ABC) type. In ABC-DLBCL, a constitutive high-level activity of the NF-kappaB family of transcription factors has been observed (1) and NF-kappaB target genes are more highly expressed in ABC primary tumors than in GCB tumors. Functional studies have shown a constitutive high-level activity of the IkappaB (inhibitor of kappa-B) kinase (IKK) complex. […] Further analysis of DLBCL primary tumors for NF-kappaB target gene expression imply that although CARD11 is required for constitutive IKK activity in all ABC-DLBCL lines, mutations in CARD11 may be the root cause of IKK activation only in lines or tumors with such mutations. In other words, CARD11 mutations may explain NF-kappaB activation in only 10% of ABC-DLBCL cases. […] This process has been termed 'chronic active BCR signaling' (CABS). The goal of this screen is to find small-molecule inhibitors of the CABS pathway found in ABC-DLBCL lines using a cell-based assay that measures IkappaBalpa stability, which has already been extensively validated in the OCI-Ly3 line (PubChem AID:445; REF: 4). […] The assay uses green (CBG68) and red (CBR) emitting beetle luciferases [Chroma-GloTM developed by Promega Corp.] where the green luciferase is fused to IkappaBalpha and the red luciferase is present in its native state. Both luciferase genes are stably present in the TMD8 human ABC DLBCL cell line, but their expression is under the control of tetracycline-inducible promoters. Following the addition of doxycycline to induce expression of the luciferases, the green luminescence in control cultures rises only slowly because the CBG fusion partner IkappaBalpha is targeted by IKK activity for rapid degradation. In contrast, green luminescence rises rapidly in the presence of proteasome inhibitors or IKK inhibitors. The rise in red luminescence of CBR is not affected by proteasome or IKK inhibitors, and serves as normalization for cell number and nonspecific effects. Compounds were screened as a concentration-titration series that ranged from 46 uM to 3 nM.
NCGC Assay Protocol Summary: Cells were seeded in 1536-well plates at 5000 cells/4uL in IMDM medium containing 0.5% FBS, w/o phenol red, 1% penicillin/streptomycin. Then, 23 nL of compounds or DMSO were delivered to each well using a pin tool. One uL 20ng/ml doxycycline was then dispensed into white solid 1536-well plates and the plates were incubated at 37C/5% C02 in a cell incubator for 4 hrs. Then 4 uL luminescent substrate mix (in-house prepared: 150 mM Tris-Cl, pH 7.6, 3 mM MgCl2, 1% Triton X-100, 5 mM DTT, 0.2 mM CoA, 0.15 mM ATP, 5 mM D-luciferin, final concentrations) was added to each well. The plate was incubated at r.t. for 10-15 min. The plates were measured on a ViewLux plate reader for green luminescence (540/20 nm filter) and red luminescence (618/8 nm filter). The green and red luminescent signals were corrected for red and green luminescence filter overlap using previously determined filter calibration constants (determined using the procedure outlined in the Promega Technical Manual; REF 4). The %Activity was determined from the ratio of corrected green/red luminescent values. MG132 were used as control. […] Red luminescent %Activity was normalized to the difference between red luminesence in basal cells (0%Activity) and zero luminescence (-100% Activity). […]

[1] = measured here: CBR red luminescence, cell number
[2] = measured here: IkBa-CBG green luminescence

| SMILES | AC50 [1] | AC50 [2] |
| --- | --- | --- |
| C/C(=N\NC(=O)c1ccccc1OCCOc1ccccc1)c1ccccc1F | 10.3 µM [falling, partial curve] |  |
| O=C(CSc1nc2nc(-c3cccs3)cc(C(F)(F)F)c2c(=O)[nH]1)Nc1ccc(F)c(F)c1 | 12.6 µM [falling, partial curve] |  |
| COc1ccc(Nc2cc(C)c3ccc(O)cc3n2)cc1 | 10 µM [rising, partial curve, poor fit] |  |
| COc1ccc2nc(NC(=O)CS(=O)(=O)c3ccc(C)cc3)sc2c1 | 35.5 µM [falling, single point] |  |
| Cc1ccc(NC(=O)N2CCCC2C(=O)NCC2CCCO2)cc1 (stereo not drawn) | 0.562 µM [rising, full curve, poor fit] |  |
| Cc1ccc(N(C(=O)c2nsc(Cl)c2Cl)C(C(=O)NC2CCCC2)c2ccc(O)cc2)cc1C (stereo not drawn) | 14.6 µM [falling, partial curve] |  |
| CCCCOC(=O)c1ccc(NC(=O)C(=O)NCC2CCCO2)cc1 (stereo not drawn) | 8.91 µM [falling, partial curve, poor fit] |  |
| NC(=S)n1[nH]c(-c2ccccc2)c(N=Nc2ccccc2C(=O)N2CCOCC2)c1=O | 6.31 µM [falling, full curve, poor fit] | 1.12 µM [rising, full curve, poor fit] |
| NNC(=O)c1oc2nc(-c3cccs3)cc(-c3ccco3)c2c1N | 20 µM [falling, single point] |  |
| Cc1ccc(S(=O)(=O)N2CCOCC2)cc1NC(=O)COC(=O)c1ccc(OCc2c(C)noc2C)cc1 |  | 23.1 µM [falling, single point] |
| O=C(N/N=C/c1ccccn1)c1ccc(Br)cc1 | 23.1 µM [rising, single point] | 18.4 µM [falling, single point] |
| Nc1ccc(/C=C/C(=O)c2ccco2)cc1 | 16.4 µM [falling, single point] |  |
| COc1cc(C2N(c3cccc(Cl)c3)C(=O)C3CCCN32)cc(OC)c1OC (stereo not drawn) | 0.92 µM [rising, full curve, poor fit] |  |
| CC(=O)N(C)c1ccc(OCC(O)COc2ccc(N(C)C(C)=O)cc2)cc1 | 20.6 µM [rising, single point] |  |
| CC(C)(C)c1ccccc1OCC(=O)Nc1ccccc1C(=O)NCc1cccnc1 | 35.5 µM [falling, single point] |  |
| CCCN1C(=O)c2ccc(C(=O)Nc3ccccc3C(=O)O)cc2C1=O | 7.08 µM [falling, partial curve] |  |
| COc1ccccc1N1CCN(c2ccnc3cc(Cl)ccc23)CC1 |  | 15.8 µM [falling, single point] |
| COc1cc(OC)cc(C(=O)Nc2ccn(C)n2)c1 | 14.6 µM [falling, partial curve, poor fit] |  |
| O=C(NCc1ccccn1)c1coc(=O)c(Br)c1 | 23.1 µM [rising, single point] |  |
| COc1ccc(C(=O)NCC2OCCc3ccccc32)c(O)c1 (stereo not drawn) | 0.731 µM [rising, full curve] |  |
| CC1CCN(C(=O)c2ccc(COc3ccccc3Cl)o2)CC1 | 35.5 µM [falling, single point] |  |

| SMILES | AC50 [1] | AC50 [2] |
| --- | --- | --- |
| Cc1cc(C(=O)COc2ncnc3sccc23)c(C)n1C1CC1 | 2 µM [rising, partial curve] |  |
| COc1ccc(-c2noc(-c3ccccc3-c3ccccc3)n2)cc1OC | 20.6 µM [rising, single point] |  |
| C/C(=N\Nc1nc(N)cc(Cl)n1)c1cccc([N+](=O)[O-])c1 | 0.251 µM [rising, full curve, poor fit] |  |
| O=C(N/N=C/c1ccccn1)c1cccc([N+](=O)[O-])c1 | 35.5 µM [rising, single point] |  |
| COc1cc(OC)cc(C(=O)OCC(=O)NC2CCCCCC2)c1 | 16.4 µM [rising, partial curve, poor fit] |  |
| Cc1cc(Cl)ccc1OCC(=O)N1CCCN(C(=O)COc2ccc(Cl)cc2C)CC1 | 29.1 µM [falling, single point] |  |
| CC(=O)N1CCC2(CC1)NC(=O)N(c1ccccc1)N2 | 14.1 µM [rising, single point] |  |
| O=C(Nc1cccc(NC(=O)c2ccc(Cl)cc2Cl)c1)c1cccnc1 | 10 µM [falling, partial curve] |  |
| Cc1nc(-c2ccc(Cl)cc2)sc1C1(C)CC(c2ccc(OC(F)(F)F)cc2)=NO1 (stereo not drawn) | 7.08 µM [rising, partial curve, poor fit] |  |
| COc1ccc(/C(N)=N/OC(=O)C2CCCCC2)cc1 | 2 µM [rising, partial curve, poor fit] |  |
| Cc1cccc(C(=O)Nc2ccccc2C(=O)OCC(=O)Nc2ccc(C#N)cc2)c1 | 1.3 µM [falling, full curve] |  |
| COc1ccc(-c2cn3ccccc3n2)cc1[N+](=O)[O-] | 10.3 µM [rising, partial curve, poor fit] |  |
| CCC(C)C(=O)Nc1ccc([N+](=O)[O-])cc1OC (stereo not drawn) | 7.94 µM [rising, partial curve, poor fit] |  |
| Nc1nc(SCC(=O)c2cccs2)n[nH]1 | 6.31 µM [falling, full curve, poor fit] |  |
| Cc1ccc2c(=O)oc(N(C)C)nc2c1 | 35.5 µM [falling, single point] |  |
| CCCSc1nsc(SCCC)c1C(N)=O | 14.1 µM [rising, partial curve] |  |
| Oc1ccc(/C=N/Nc2cc(N3CCCC3)nc(N3CCCC3)n2)cc1 | 35.5 µM [falling, single point] |  |
| COc1ccccc1OCCCCOc1ccccc1F | 0.355 µM [rising, full curve, poor fit] |  |
| COc1ccc(C(=O)NC(=S)N2CCNC(=O)C2CC(=O)OC(C)C)cc1 (stereo not drawn) | 5.01 µM [rising, full curve, poor fit] |  |
| O=C(c1ccc(S(=O)(=O)Cc2ccccc2Cl)c([N+](=O)[O-])c1)N1CCN(c2ccccn2)CC1 | 11.2 µM [falling, single point] |  |

3 compounds from above, ordered by molecular weight, descending:

| SMILES | AC50 [1] | AC50 [2] |
| --- | --- | --- |
| Cc1nc(-c2ccc(Cl)cc2)sc1C1(C)CC(c2ccc(OC(F)(F)F)cc2)=NO1 (stereo not drawn) | 7.08 µM [rising, partial curve, poor fit] |  |
| Cc1cccc(C(=O)Nc2ccccc2C(=O)OCC(=O)Nc2ccc(C#N)cc2)c1 | 1.3 µM [falling, full curve] |  |
| CC1CCN(C(=O)c2ccc(COc3ccccc3Cl)o2)CC1 | 35.5 µM [falling, single point] |  |
